These are yes or no findings as the source states them, for the method shown. Some results given as binding are weak or reduced against the parent protein; the word gives no strength. For some of these results: Tags and fused reporters may be left off the sequences shown.
Molecular target: rat albumin (rat) (UniProt P02770)
Assay: phage ELISA

By UniProt entry, the sequences of proteins in these tests, tags left out. Residues count along the entry.
UniProt P02770, residues 25-608: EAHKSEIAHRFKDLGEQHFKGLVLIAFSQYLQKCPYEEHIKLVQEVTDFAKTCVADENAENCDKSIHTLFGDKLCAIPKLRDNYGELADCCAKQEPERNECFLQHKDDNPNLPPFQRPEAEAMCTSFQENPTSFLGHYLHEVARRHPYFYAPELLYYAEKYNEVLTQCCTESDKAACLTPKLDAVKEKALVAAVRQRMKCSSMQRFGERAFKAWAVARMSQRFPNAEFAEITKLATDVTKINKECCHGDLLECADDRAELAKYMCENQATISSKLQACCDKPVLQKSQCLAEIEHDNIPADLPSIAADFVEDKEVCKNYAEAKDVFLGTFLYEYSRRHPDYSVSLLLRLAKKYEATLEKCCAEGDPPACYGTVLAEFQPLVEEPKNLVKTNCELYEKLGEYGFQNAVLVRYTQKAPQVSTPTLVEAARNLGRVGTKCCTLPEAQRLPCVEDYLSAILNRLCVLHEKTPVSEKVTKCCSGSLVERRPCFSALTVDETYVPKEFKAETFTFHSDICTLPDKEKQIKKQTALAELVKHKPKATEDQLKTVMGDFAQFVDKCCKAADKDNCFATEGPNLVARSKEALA
UniProt P02768, residues 25-609: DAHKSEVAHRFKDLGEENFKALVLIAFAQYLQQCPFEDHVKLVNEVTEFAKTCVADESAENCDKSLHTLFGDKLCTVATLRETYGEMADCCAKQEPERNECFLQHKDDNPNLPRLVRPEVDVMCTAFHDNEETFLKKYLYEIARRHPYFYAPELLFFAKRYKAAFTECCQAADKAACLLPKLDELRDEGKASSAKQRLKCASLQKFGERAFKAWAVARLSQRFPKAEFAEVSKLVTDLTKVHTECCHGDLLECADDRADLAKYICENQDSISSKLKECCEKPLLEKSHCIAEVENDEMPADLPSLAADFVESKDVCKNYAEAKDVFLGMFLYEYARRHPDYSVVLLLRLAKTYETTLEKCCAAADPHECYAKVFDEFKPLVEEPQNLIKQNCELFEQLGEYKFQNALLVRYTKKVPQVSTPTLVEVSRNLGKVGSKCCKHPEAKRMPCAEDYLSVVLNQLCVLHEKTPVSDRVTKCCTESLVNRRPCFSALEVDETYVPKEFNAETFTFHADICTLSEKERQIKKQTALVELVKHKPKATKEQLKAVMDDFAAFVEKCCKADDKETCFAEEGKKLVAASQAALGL

binding, binds:
QRLMWEICLPLWGCLWGDGL [RB-R5]
QRQIMDFCLPHWGCLWGDGF [RB-R10]
GRQVVDFCLPKWGCLWEEGL [RB-R2]

Molecular target: human albumin (human) (UniProt P02768)
Assay: phage ELISA

binding, binds:
GRSFCMDWPAHKSCTPLML [HA-H83]
GVRTFCQDWPAHNSCKLLRG [HA-H73]
QTRSFCADWPRHESCKPLRG [HA-H76]
MEPSRSVCYAEGICFDRGEQ [HB-H8]
REPASLVCYFEDICFVRAEA [HB-H3]
RGPDVCYWPSICFERSMP [HB-H6]
LVPERIVCYFESICYERSEL [HB-H4]
RMPASLPCYWETICYESSEQ [HB-H16]
RTAESLVCYWPGICFAQSER [HB-H18]
RAPERWVCYWEGICFDRYEQ [HB-H1]
EICYFPGICWI [HB-H12]
ELCYFPGICWT [HB-H13]
DICYIPGICWM [HC-H6]
KLCYFPGICWS [HC-H2]
DLCYFPGICWM [HC-H3]
GMCYFPGICWA [HC-H4]
EMCYFPGICWS [HC-H7]
EMCYFPGICWT [HC-H9]
KTCYFPGICWM [HC-H10]
KVCYFPGICWM [HC-H5]
DVCYFPGICWM [HC-H8]
EICYFPGICWM [HC-H17]
ALCYFPGICWM [HC-H14]
ELCYFPGICWP [HC-H15]
ELCYFPGICWM [HC-H20]
DMCYFPGICWL [HC-H13]
DMCYFPGICFN [HC-H18]
ETCYFPGICWL [HC-H12]
EVCYFPGICWF [HC-H11]
EVCYFPGICWE [HC-H16]
EVCYFPGICWM [HC-H19]
LAEMCYFPGICWMSA [HBC-H7]
GGEICYFPGICRVLP [HBC-H4]
EHDMCYFPGICWIAD [HBC-H6]
VQEVCYFPGICWMQE [HBC-H10]
SREVCYYPGICWNGA [HBC-H2]
DSEVCYFPGICWSGT [HBC-H1]
GTEVCYFPGICWGGG [HBC-H3]
SYAPCYFPGICWMGN [HBC-H8]
HAEICYFPGICWTER [HBC-H17]
NDEICYFPGVCWKSG [HBC-H11]
RDTVCYFPGICWMAS [HBC-H18]
VRDMCYFPGICWKSE [HBC-H19]
ASEICYFPGICWMVE [HBC-H12]
QTELCYFPGICWNES [HBC-H13]
TTEMCYFPGICWKTE [HBC-H14]
KTEICYFPGICWMSG [HBC-H15]
IVEMCYYPGICWISP [HB-H10]
SGAICYVPGICWTHA [HB-H7]

Reference: patent publication US20040253247A1
